Test results as given in patent US20240083920A1, “LOW MOLECULAR WEIGHT CORROLE COMPOSITIONS” (TECHNION RESEARCH & DEVELOPMENT FOUNDATION LTD, priority 2021, published 2024).

Assay: Electrochemical hydrogen production from protons, catalyst adsorbed onto Vulcan XC72R carbon
Details: protons to hydrogen gas, 0.5 M H2SO4 under N2
Protocol: Inks of the corrole-containing carbons were prepared by mixing 1 mg from the solid mixtures described above, with 0.2 mL isopropanol, 0.8 mL H2O, and 10 μL of Nafion, followed by sonication for 20 min. Small quantities (5 μl) of this kind of inks were dropped on the surface of glassy carbon electrodes (GC), followed by drying the modified electrodes for 40 min at 45° C. This process was repeated once more for each electrode and also for the ink prepared from non-modified Vulcan XC72R. The performance of the electrode prepared from the latter was checked relative to the electrodes modified by (cor)Co(PPh3) and (cor)Mo(O), by examining the electrocatalytic hydrogen production from protons (FIG. 3).
Electrochemical hydrogen production was performed using 0.5 M H2SO4 solution under N2 by (cor)CoPPh3 and (cor)Mo(O) catalysts adsorbed onto Vulcan XC72R carbon as the solid support. Ag/AgCl and Pt wire were used as reference and counter electrodes, respectively.

## (oxo)Molybdenum(V) Corrole [(cor)Mo(O)]
  Faradaic Efficiency (FE): 92%
  overpotential relative to 20% Pt: 280 mV
